For this assay, the target named is BD-MdCNR8 (full-length MdCNR8 in pGBT9) (apple). Put plainly: two-hybrid; pairwise Y2H; baits in pGBT9 (BD), preys in pGAD424 (AD); Gold yeast strain; growth on SD (-T/-L/-H/-A) and SD (-T/-L/-H/-A) with X-gal.

No constants are given. Whether binding was seen depends on the method and setting. A result given as binding can be weak or reduced; the word gives no strength.

B1: AtSCE1 (full-length, in pGAD424) (enzyme, UniProt Q42551 1-160)
chain: MASGIARGRLAEERKSWRKNHPHGFVAKPETGQDGTVNLMVWHCTIPGKAGTDWEGGFFPLTMHFSEDYPSKPPKCKFPQGFFHPNVYPSGTVCLSILNEDYGWRPAITVKQILVGIQDLLDTPNPADPAQTDGYHLFCQDPVEYKKRVKLQSKQYPALV
As for B1, the binding entry is recorded as “binds”.

Values taken from paper PMC9051543.
